Assay results as given in PMC5838202.
These are yes or no findings as the source states them, for the method shown. For part of these data: In cells and extracts the contact can be indirect. Some results given as binding are weak or reduced against the parent protein; the word gives no strength. Blank lines part the entries; values can stand above or below the substance they belong to.

Amino acid sequences for entries named in this document (tags omitted). A change or cut given only in a name is not applied to a line headed by its entry. Chains listed by the source or under a name are the forms on record and can include a tag or linker.
UniProt P06748: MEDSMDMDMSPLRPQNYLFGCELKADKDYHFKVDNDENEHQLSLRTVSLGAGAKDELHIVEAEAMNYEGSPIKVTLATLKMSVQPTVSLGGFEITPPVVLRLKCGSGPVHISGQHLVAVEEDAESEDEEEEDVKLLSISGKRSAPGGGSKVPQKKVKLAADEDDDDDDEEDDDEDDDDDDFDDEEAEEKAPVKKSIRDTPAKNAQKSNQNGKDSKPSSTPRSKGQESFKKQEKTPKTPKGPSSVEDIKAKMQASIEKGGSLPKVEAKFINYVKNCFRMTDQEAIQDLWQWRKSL
G196-NPM1 (LG) (P06748, form named): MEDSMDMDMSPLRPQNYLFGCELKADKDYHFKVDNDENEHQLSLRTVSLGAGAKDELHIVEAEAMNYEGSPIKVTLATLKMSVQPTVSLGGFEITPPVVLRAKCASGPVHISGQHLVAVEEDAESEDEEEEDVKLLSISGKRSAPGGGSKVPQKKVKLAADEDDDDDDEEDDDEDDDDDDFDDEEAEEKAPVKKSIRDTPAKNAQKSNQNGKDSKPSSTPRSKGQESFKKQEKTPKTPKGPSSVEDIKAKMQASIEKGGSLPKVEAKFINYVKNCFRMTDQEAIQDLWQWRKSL
NPM1c, endogenous in OCI-AML3 cells (P06748, form named): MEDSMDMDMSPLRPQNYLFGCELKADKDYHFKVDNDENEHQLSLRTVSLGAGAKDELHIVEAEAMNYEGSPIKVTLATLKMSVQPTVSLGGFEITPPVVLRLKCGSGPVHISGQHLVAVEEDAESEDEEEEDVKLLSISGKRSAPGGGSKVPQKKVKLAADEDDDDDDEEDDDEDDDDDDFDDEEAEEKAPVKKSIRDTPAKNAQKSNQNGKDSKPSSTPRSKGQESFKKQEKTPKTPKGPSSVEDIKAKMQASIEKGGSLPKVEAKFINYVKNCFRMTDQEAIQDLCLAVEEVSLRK

Tests used:
[1] = target: G196-NPM1 (LG) (human) (UniProt P06748); assay: SEC; Triton X-100 soluble lysate of transfected 293T cells, without RNase A; Superdex 200 Increase 10/300 GL in PBS with 1% Triton X-100; fractions by immunoblot
[2] = target: G196-NPM1 (LG) (human) (UniProt P06748); assay: co-IP; anti-G196 antibody on Protein G Sepharose; Triton X-100 soluble and insoluble lysates of transfected 293T cells, treated with RNase A (40 µg/ml, 15 min, 37 °C); immunoblot
[3] = target: NPM1 (WT), endogenous in OCI-AML3 cells (human (endogenous in OCI-AML3)) (UniProt P06748); assay: co-IP; OCI-AML3 cells lysed in PBS with 1% Triton X-100, 0.1% SDS, 0.5% DOC and 15 mM imidazole; immunoprecipitated with anti-NPM1 (FC82291, does not recognize NPM1c); immunoblot

binding [1]: no binding
Substance: G196-NPM1 (LG) (from UniProt P06748 1-294)

binding [2]: no binding
Substance: endogenous NPM1 (293T cells) (from UniProt P06748 1-294)

binding [3]: binds
Substance: NPM1c, endogenous in OCI-AML3 cells (from UniProt P06748 1-294)
